Test results reported in patent US20120003299A1.
Results are given in words; binding and its absence hold for the method and conditions named. Some results given as binding are weak or reduced against the parent protein; the word gives no strength.

How the values were obtained:
[1] = target: recombinant human Hsp90 (human) (UniProt P07900); test: discussion of the SPR results of Example 1
[2] = target: recombinant human Hsp90 (human) (UniProt P07900); test: SPR (BIACORE): Hsp90 immobilized on sensor chip
[3] = target: recombinant human Hsp90 (human) (UniProt P07900); test: SPR (BIACORE): Hsp90 immobilized on sensor chip (legend of FIG. 2)

Measured: binding

RQIKIWFQNRRMKWKKKAYARIGNSYFK [Antp-TPR chimeric peptide (…-…)]
binds: all assays above
